Measured values taken from PubChem BioAssay AID1671190 (National Center for Advancing Translational Sciences (NCATS), 2021).
Out of some 580,000 compounds screened, about 6,100 (1.1%) were called active. The shares of active, inactive and inconclusive entries below differ from those in the screen. Calls follow the shape of the dose curve; as a rule, active = well fitted inhibition curve with a large enough effect; inconclusive = small, poorly fitted or top-dose-only effect, or another doubt; inactive = no such curve, though single readings can be large or run the other way. Potencies of inconclusive entries are doubtful fits and often do not repeat.

By UniProt entry, the sequences of proteins in these tests, tags left out. Where a name states a change or a piece, a line headed by the entry shows the natural chain unless it says otherwise.
UniProt P18054: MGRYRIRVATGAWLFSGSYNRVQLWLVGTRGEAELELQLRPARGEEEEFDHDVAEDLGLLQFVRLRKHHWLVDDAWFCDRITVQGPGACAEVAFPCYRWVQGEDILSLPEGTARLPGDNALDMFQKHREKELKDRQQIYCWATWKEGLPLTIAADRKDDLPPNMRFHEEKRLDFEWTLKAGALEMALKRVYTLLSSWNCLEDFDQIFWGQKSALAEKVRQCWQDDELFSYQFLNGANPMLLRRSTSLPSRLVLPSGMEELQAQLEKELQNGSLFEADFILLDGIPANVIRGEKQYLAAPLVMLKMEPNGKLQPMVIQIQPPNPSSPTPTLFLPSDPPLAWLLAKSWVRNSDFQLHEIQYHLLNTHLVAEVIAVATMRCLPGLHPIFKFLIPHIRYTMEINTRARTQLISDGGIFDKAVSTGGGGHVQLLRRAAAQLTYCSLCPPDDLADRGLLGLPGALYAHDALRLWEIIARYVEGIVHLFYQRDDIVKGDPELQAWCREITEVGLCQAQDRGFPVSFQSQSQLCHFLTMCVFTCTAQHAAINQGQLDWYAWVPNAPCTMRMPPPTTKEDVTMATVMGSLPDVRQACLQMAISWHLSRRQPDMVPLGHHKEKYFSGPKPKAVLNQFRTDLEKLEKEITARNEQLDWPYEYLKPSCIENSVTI

target: Polyunsaturated fatty acid lipoxygenase ALOX12 (Homo sapiens) (UniProt P18054); test: Primary qHTS assay for inhibitors of human arachidonate 12S-lipoxygenase (ALOX12): Round 2; settings: purified 12hLO, xylenol orange hydroperoxide absorbance; activity change, negative = inhibition: at 108 µM (top of the series) unless noted
How it was run: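 Purified human 12hLO (150 nM final) in 25 mM Hepes, 0.01% Triton X-100, pH 7.0 was preincubated 15 min at room temperature with compound. Then 40 uM arachidonic acid was added, 30 min. Hydroperoxide was read by Fe-XO absorbance ratio 573/405 nm.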
% is scaled to controls: 0 for no effect and ±100 for the full control effect; potency is read from the fitted curve at half-maximal effect.

| SMILES | Potency | activity change, negative = inhibition |
| --- | --- | --- |
| CC(C)c1ccc(/C=C(\C#N)c2nc(-c3ccc(O)cc3)cs2)cc1 | inconclusive: 28.2 µM [inhibitor, partial curve] |  |
| CCCCn1c(NC(=O)CC)c(C#N)c2nc3ccccc3nc21 |  | inactive: 0% |
| Cc1cccc(N=C2CSC(=O)N2)c1 |  | inactive: 3% |
| CCN(CC)C(=O)Oc1ccc2c(=O)c(-c3ccccc3)c(C(F)(F)F)oc2c1 |  | inactive: -1.97% |
| Cc1cc(C)c2nc(NC(=O)CN3C(=O)NC4(CCCC4)C3=O)sc2c1 | inconclusive: 35.5 µM [inhibitor, partial curve, poor fit] |  |
| CCOC(=O)c1cnc(SCC(=O)c2ccccc2)nc1N | inconclusive: 35.5 µM [inhibitor, partial curve, poor fit] |  |
| Cc1ccc(C(CNC(=O)c2cc(=O)c3ccc(C)c(C)c3o2)N(C)C)o1 (stereo not drawn) | inconclusive: 35.5 µM [inhibitor, partial curve, poor fit] |  |
| COc1ccc(N2CCN(CC(=O)Nc3nnc(-c4ccccc4)s3)CC2)cc1 |  | inactive: -1.71% |
| CC(C)c1nncn1C1CCN(S(=O)(=O)c2cccc(Cl)c2)CC1 |  | inactive: 12.8% |
| COc1cc(-c2nn3c(C4CCCCC4)nnc3s2)cc(OC)c1OC | active: 25.1 µM |  |
| C[C@@H]1CN([C@@H](C)CO)C(=O)c2cc(/C=C/c3ccccc3)cnc2O[C@@H]1CN(C)S(=O)(=O)c1ccc(F)cc1 | inconclusive: 56.2 µM [inhibitor, partial curve, poor fit] |  |
| CCOc1cccc(/C=N/NC(=O)c2cc(-c3cccn3C)n[nH]2)c1O | inconclusive: 11.2 µM [inhibitor, full curve, poor fit] |  |
| Cc1ccc(S(=O)(=O)N(CC(=O)NCc2cccnc2)C2CCCCC2)cc1 | inconclusive: 50.1 µM [inhibitor, partial curve, poor fit] |  |
| CC(C)NC(=O)COc1coc(CN2CCN(c3ccccc3F)CC2)cc1=O |  | inactive: 6.47% |
| Cc1ccccc1Cn1c2ccccc2c2cnn(CC(=O)NCCc3ccc(Cl)cc3)c(=O)c21 | inconclusive: 100 µM [inhibitor, partial curve, poor fit] |  |
| Fc1ccc(-c2csc(NC(=S)Nc3ccccc3)n2)cc1 | inconclusive: 39.8 µM [inhibitor, partial curve, poor fit] |  |
| COc1ccc2c(c1)O[C@H]1c3ccc(O)cc3OC[C@@H]21 |  | inactive: 48.7% |
| O=C(c1ccncc1)N1CCC2(CC1)CN(c1ccccn1)C2 | inconclusive: 12.6 µM [inhibitor, partial curve, poor fit] |  |
| CCC(=O)N(Cc1ccco1)c1nc(C(=O)Nc2ccc(Cl)cc2)c(C)s1 | inconclusive: 50.1 µM [inhibitor, partial curve, poor fit] |  |
| Cc1ccc2[nH]c3c(=O)n(CC(=O)N4CCCC(C)C4)ncc3c2c1 (stereo not drawn) | inconclusive: 100 µM [inhibitor, partial curve, poor fit] |  |
| CC(C)c1cccc(C(C)C)c1NS(=O)(=O)c1cccs1 | inconclusive: 5.01 µM [inhibitor, full curve, poor fit] |  |
| CC(CCCc1ccccc1)NC(=O)c1nn(-c2ccc(Cl)cc2)nc1CO (stereo not drawn) | inconclusive: 22.4 µM [inhibitor, full curve, poor fit] |  |
| Cc1ccc(Cl)cc1N1C(=O)N(CC(=O)N2CCCCCC2)c2ccccc2S1(=O)=O |  | inactive: 3.76% |

Taken from above.
activity change, negative = inhibition, COc1ccc2c(c1)O[C@H]1c3ccc(O)cc3OC[C@@H]21 is entered as inactive: 48.7%
Potency, CCOC(=O)c1cnc(SCC(=O)c2ccccc2)nc1N is entered as inconclusive: 35.5 µM [inhibitor, partial curve, poor fit]
activity change, negative = inhibition, COc1ccc(N2CCN(CC(=O)Nc3nnc(-c4ccccc4)s3)CC2)cc1 is entered as inactive: -1.71%
Potency, Cc1ccc2[nH]c3c(=O)n(CC(=O)N4CCCC(C)C4)ncc3c2c1 (stereo not drawn) is entered as inconclusive: 100 µM [inhibitor, partial curve, poor fit]

The list continues.

| SMILES | Potency | activity change, negative = inhibition |
| --- | --- | --- |
| CC1(C)N=C(N)N=C(N)N1c1ccc(CCCCc2ccccc2)cc1 | inconclusive: 89.1 µM [inhibitor, partial curve, poor fit] |  |
| CC(C)(c1ccccc1)c1ccc(OCCN2CCOCC2)cc1 | inconclusive: 0.282 µM [inhibitor, full curve, poor fit] |  |
| O=C(NCC1CCCO1)c1ccc(CSc2nc3cccnc3n2Cc2ccccc2)cc1 (stereo not drawn) | inconclusive: 35.5 µM [inhibitor, partial curve, poor fit] |  |
| Cc1cc(C)c2c(-n3cccc3)c(C(=O)NCC(C)c3ccccc3)sc2n1 (stereo not drawn) |  | inactive: 0% |
| Cc1ccc(NS(=O)(=O)c2cccs2)cc1S(=O)(=O)N1CCCCCC1 | inconclusive: 44.7 µM [inhibitor, partial curve, poor fit] |  |
| O=C(c1cc(-c2ccc(F)cc2)nc2ccccc12)N1CCC(c2nc(C3CCOCC3)no2)C1 (stereo not drawn) |  | inactive: 9.02% |
| O=c1[nH]n(CCO)c(=O)c2cccnc12 | inconclusive: 112 µM [inhibitor, partial curve, poor fit] |  |
| CN[C@@H](CO)C(=O)N1CCC(c2cc(Cc3ccccc3)[nH]n2)CC1 | inconclusive: 10 µM [inhibitor, full curve] |  |
| COc1cccc(-c2ccc(C#N)c(OC(=O)c3c(Cl)cccc3Cl)n2)c1 |  | inactive: -10.8% |
| CCOc1ccccc1NC(=O)c1cc2c(=O)[nH]c3ccccc3c2s1 |  | inconclusive: -31% [inhibitor] |
| NC(=S)NNC(=O)c1ccccc1C(=O)O | inconclusive: 25.1 µM [inhibitor, full curve, poor fit] |  |
| Cc1cccc(NS(=O)(=O)c2cccc(C(=O)NCC(c3ccco3)N3CCCCC3)c2)c1 (stereo not drawn) |  | inactive: -22.3% |
| CC(=O)Nc1ccc(C2(C(=O)N3CCN(c4ccccc4)CC3)CCCCC2)cc1 |  | inactive: 5.32% |
| Cc1ccc(-c2cc(C(=O)Nc3nnc(C4CC4)s3)c3ccccc3n2)o1 | active: 7.94 µM |  |
| CCN(CC)CCN(C(=O)CCS(=O)(=O)c1ccccc1)c1nc2cc(C)cc(C)c2s1 | inconclusive: 50.1 µM [inhibitor, partial curve, poor fit] |  |
| Oc1ccc(C2C(c3ccccc3)=NN=C(c3ccccc3F)N2O)c(O)c1 (stereo not drawn) |  | inactive: -26.9% |
| S=c1[nH]cc(Oc2ccc(Cl)cc2Cl)c(=S)[nH]1 | inconclusive: 50.1 µM [inhibitor, partial curve, poor fit] |  |
| O=C(NC1CCCCC1)c1ccc2c(c1)N(Cc1cccc(Cl)c1)C(=O)c1ccccc1S2=O (stereo not drawn) | inconclusive: 126 µM [inhibitor, partial curve, poor fit] |  |
| Cc1cc(=O)oc2cc(OC(C)C(=O)Nc3ccc(S(=O)(=O)NC(C)C)cc3)ccc12 (stereo not drawn) | inconclusive: 89.1 µM [inhibitor, single point] |  |
| CC(=O)c1cccc(NS(=O)(=O)c2ccc(-c3coc(C)n3)cc2)c1 |  | inactive: 18.3% |
| Cc1ccc(C(=O)O)cc1NC(=S)NC(=O)c1ccc(-c2ccc(Cl)cc2)o1 | active: 2 µM |  |
| CCCCCc1nnc(NC(=O)Cc2cccs2)s1 |  | inactive: 0.304% |
| Cc1cc(C(=O)Nc2sc3c(c2C#N)CCCC3)no1 | active: 35.5 µM |  |

| SMILES | Potency | activity change, negative = inhibition |
| --- | --- | --- |
| O=C(Nc1cccc(Cl)c1)C1CC(c2ccccc2)=NO1 (stereo not drawn) | inconclusive: 70.8 µM [inhibitor, partial curve, poor fit] |  |
| COc1ccc(CN2CCN(S(=O)(=O)c3ccc(NC(C)=O)cc3)CC2)c(OC)c1OC | inconclusive: 7.08 µM [inhibitor, full curve, poor fit] |  |
| O=C(CN1C(=O)NC2(CCCC2)C1=O)c1ccc(Cl)s1 | inconclusive: 50.1 µM [inhibitor, partial curve, poor fit] |  |
| CCN(Cc1ccccc1)C(=O)CNC(=O)Cc1c[nH]c2ccccc12 |  | inactive: 10.9% |
| Cc1cc(SCc2ccc(Cl)c(Cl)c2)nc2ccc(F)cc12 |  | inactive: -12.6% |
| O=S1(=O)C=C(N2CCOCC2)c2ccccc21 |  | inactive: -8.73% |
| NS(=O)(=O)c1ccc(Nc2nc(-c3ccc(O)cc3)cs2)cc1 | inconclusive: 44.7 µM [inhibitor, partial curve, poor fit] |  |
| CCOC(=O)/C(C#N)=C/c1c(N2CCN(c3ccccc3)CC2)nc2c(C)cccn2c1=O | inconclusive: 39.8 µM [inhibitor, single point] |  |
| Fc1cccc(Nc2nc(Cl)nc(Cl)n2)c1 | inconclusive: 44.7 µM [inhibitor, partial curve, poor fit] |  |
| O=C(Cn1ncc2c3ccccc3n(Cc3cccc(Cl)c3)c2c1=O)N1CCCCCC1 | inconclusive: 89.1 µM [inhibitor, partial curve, poor fit] |  |
| CCOc1ccc(/C=N/n2c(C3CCCCC3)n[nH]c2=S)cc1 | inconclusive: 31.6 µM [inhibitor, partial curve] |  |
| Cc1cc(C(=O)c2ccccc2)c(NC(=O)CN2CCOCC2)s1 |  | inactive: -0.619% |
| COc1ccc(CCN2CN(S(=O)(=O)c3ccccc3)c3nc4ccccc4nc32)cc1 |  | inactive: -3.16% |
| CCn1ccc(C(=O)NC2C(=O)N3C(C(=O)O)=C(C)CSC23)n1 (stereo not drawn) | inconclusive: 35.5 µM [inhibitor, full curve, poor fit] |  |
| CCOc1ccc(CCNC(=O)Cn2c(C)c3cnn(-c4ccccc4)c(=O)c3c2C)cc1 | inconclusive: 63.1 µM [inhibitor, partial curve, poor fit] |  |
| O=C(NCc1ccco1)c1ccc2c(c1)N(Cc1cccc(Cl)c1)C(=O)c1ccccc1S2=O (stereo not drawn) |  | inactive: -35.4% |
| CCOc1ncccc1C(=O)Nc1cccc(C(=O)Nc2cccc(S(=O)(=O)CCO)c2)c1 |  | inactive: 0% |
| CCc1ccc(NC(=O)CC2C(=O)N(c3ccc(Cl)cc3)C(=O)N2C2CCCC2)cc1 (stereo not drawn) | inconclusive: 35.5 µM [inhibitor, partial curve, poor fit] |  |
| COc1ccc(C(=O)COC(=O)C(CCSC)NC(=O)COc2ccccc2)c(OC)c1 (stereo not drawn) | inconclusive: 50.1 µM [inhibitor, partial curve, poor fit] |  |
| Cc1ccc2cc(C#N)c(N3CCCN(C(=O)c4cnccn4)CC3)nc2c1 |  | inactive: -23.9% |
| COc1ccc(NCc2cc(=O)[nH]c3ccccc23)cc1 | inconclusive: 0.355 µM [inhibitor, full curve, poor fit] |  |
| COCCCn1c(C)cc(C(=O)COC(=O)Cc2nn(C)c(=O)c3ccccc23)c1C |  | inactive: 7.58% |
